Experimental data reported in patent US20200253907A1, “Compositions and Methods for Treating Neurodegenerative Diseases” (The Regents of the University of California, priority 2017, published 2020).
At least one structure is not confirmed: it was looked up by name or label, or the drawing left a doubt.

System: GMC101 C. elegans strain
Test: Paralysis assay in GMC101 C. elegans model of Alzheimer's disease
Type: in vivo
Conditions: 8 mM; FIG. 6
Procedure: To investigate the effects of small molecules in a C. elegans model of Alzheimer's disease, the GMC101 C. elegans strain, developed by Gawain McColl at the University of Melbourne, Australia, was used. The GMC101 C. elegans strain expresses the full length human amyloid beta 1-42 protein in the body wall muscle cells, leading to a fully penetrant age-progressive paralysis. These worms were first age-synchronized by performing an egg prep (mixed <100 gravid worms in 70 μl M9 buffer, 25 μl bleach and 5 μl 10 N NaOH). […] All worms were transferred to fresh plates on Day 5.

SMILES: CC(=O)C(=O)O [pyruvate]
- Aβ toxicity and paralysis: reduces Aβ toxicity and delays paralysis
